From the supplement of paper PMC12067093, “Discovery and optimisation of a covalent ligand for TRIM25 and its application to targeted protein ubiquitination” (Chemical Science, 2025)
The other results are listed elsewhere or left out.

Chains of the proteins cited; added tags and fusions are not shown. Lines headed by an entry give the natural chain unless they say otherwise; changes in a name come on top.
UniProt Q86VU5: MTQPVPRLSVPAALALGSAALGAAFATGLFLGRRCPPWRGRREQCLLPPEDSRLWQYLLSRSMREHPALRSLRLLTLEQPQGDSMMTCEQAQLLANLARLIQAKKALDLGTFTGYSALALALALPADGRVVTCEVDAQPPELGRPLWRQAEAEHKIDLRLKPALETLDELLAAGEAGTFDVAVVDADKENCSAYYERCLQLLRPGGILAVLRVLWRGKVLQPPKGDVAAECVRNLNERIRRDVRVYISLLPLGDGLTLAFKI
UniProt Q9Y2B0: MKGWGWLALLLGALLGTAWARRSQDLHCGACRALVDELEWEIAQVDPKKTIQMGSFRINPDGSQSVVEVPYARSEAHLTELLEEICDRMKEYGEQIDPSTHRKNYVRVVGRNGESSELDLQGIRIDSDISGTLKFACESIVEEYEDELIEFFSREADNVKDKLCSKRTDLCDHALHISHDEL
UniProt Q9UIV1, whole entry, looked up: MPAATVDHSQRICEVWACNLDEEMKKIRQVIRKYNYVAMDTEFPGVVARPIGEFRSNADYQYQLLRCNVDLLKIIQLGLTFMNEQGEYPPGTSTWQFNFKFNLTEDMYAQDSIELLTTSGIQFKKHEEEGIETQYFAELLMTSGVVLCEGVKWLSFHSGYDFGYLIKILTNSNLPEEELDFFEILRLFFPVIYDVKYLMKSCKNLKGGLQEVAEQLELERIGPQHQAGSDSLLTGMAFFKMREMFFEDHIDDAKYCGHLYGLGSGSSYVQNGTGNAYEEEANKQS
UniProt P62633: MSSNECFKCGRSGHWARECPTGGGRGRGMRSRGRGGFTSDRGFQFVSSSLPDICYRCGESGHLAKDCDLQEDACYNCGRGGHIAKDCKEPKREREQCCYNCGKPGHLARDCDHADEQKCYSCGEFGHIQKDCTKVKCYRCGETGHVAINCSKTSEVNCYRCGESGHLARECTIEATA
UniProt Q96JB2: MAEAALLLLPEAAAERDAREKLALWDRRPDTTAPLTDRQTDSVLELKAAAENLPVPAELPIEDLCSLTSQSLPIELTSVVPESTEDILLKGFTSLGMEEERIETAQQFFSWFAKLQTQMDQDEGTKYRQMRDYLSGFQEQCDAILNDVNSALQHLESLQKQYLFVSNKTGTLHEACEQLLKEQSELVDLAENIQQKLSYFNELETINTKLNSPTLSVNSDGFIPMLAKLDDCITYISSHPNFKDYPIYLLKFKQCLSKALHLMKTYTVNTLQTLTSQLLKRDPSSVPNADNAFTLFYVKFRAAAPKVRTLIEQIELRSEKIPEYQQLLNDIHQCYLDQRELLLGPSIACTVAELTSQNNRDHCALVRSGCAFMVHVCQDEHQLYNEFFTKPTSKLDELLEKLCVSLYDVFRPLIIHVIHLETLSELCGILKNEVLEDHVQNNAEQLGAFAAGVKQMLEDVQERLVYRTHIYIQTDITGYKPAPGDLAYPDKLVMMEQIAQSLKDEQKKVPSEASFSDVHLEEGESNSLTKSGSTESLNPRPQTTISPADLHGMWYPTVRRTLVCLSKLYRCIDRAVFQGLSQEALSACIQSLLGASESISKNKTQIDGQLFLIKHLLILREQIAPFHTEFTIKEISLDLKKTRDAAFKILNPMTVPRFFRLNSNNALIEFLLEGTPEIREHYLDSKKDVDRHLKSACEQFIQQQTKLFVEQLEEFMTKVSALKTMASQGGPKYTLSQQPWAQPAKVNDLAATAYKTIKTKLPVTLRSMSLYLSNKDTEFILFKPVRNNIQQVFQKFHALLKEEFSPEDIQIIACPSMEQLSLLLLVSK
UniProt Q9Y6Z7: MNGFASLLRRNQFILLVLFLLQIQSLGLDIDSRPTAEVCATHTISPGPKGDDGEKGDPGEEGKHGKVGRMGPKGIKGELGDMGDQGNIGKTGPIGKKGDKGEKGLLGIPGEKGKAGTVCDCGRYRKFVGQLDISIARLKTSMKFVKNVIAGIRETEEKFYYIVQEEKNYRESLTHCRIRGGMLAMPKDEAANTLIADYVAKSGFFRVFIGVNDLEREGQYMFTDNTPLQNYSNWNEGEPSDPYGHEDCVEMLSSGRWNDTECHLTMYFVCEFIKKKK
UniProt Q8N1G2: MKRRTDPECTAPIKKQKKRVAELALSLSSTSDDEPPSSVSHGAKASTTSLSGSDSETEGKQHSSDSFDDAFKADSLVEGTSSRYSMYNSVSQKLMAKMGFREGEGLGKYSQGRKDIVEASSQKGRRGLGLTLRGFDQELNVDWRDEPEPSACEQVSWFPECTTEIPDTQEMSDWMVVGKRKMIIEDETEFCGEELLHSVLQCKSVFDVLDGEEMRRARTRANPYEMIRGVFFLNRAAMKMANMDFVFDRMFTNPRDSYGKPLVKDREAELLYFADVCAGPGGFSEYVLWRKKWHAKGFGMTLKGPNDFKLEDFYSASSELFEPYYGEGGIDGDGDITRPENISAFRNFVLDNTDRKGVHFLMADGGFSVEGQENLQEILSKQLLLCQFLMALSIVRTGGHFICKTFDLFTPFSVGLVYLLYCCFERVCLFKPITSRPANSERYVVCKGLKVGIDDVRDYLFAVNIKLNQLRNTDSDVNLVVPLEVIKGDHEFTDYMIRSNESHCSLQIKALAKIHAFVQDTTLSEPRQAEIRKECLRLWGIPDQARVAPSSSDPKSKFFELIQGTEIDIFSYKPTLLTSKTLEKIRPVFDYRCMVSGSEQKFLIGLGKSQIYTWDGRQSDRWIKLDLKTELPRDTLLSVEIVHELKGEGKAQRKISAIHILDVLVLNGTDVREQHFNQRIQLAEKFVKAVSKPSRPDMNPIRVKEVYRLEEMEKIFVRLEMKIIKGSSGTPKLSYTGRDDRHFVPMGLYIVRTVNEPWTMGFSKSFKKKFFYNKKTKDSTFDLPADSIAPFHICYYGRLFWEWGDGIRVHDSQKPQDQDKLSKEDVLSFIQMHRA
UniProt Q8NI60: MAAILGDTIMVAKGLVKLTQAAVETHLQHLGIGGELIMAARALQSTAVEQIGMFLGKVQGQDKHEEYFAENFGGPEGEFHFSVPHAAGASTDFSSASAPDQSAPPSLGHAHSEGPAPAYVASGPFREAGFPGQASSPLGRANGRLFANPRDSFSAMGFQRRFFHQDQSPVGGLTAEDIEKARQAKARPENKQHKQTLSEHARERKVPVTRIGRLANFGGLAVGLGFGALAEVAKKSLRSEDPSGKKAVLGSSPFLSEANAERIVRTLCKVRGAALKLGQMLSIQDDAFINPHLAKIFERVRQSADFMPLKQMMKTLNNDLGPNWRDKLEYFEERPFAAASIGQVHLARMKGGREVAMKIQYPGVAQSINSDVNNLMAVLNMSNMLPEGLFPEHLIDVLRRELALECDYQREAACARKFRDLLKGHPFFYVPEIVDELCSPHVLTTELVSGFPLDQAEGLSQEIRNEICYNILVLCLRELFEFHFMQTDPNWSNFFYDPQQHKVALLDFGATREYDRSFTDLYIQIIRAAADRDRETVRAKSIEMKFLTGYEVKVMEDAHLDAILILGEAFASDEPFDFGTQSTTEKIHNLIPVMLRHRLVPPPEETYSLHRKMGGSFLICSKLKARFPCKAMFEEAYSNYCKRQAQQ
UniProt P31146: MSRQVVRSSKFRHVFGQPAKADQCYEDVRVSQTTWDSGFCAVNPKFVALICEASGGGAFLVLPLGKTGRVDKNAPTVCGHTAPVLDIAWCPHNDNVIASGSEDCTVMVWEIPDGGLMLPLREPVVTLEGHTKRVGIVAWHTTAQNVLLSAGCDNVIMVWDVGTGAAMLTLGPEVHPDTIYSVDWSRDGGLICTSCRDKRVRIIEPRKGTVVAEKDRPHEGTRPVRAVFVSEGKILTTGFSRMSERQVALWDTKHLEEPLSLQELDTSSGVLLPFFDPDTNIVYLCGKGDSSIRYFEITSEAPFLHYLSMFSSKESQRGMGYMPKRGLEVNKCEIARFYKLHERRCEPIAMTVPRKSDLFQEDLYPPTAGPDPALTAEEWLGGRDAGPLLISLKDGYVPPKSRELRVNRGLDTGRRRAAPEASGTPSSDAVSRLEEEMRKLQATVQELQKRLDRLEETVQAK
UniProt O95628: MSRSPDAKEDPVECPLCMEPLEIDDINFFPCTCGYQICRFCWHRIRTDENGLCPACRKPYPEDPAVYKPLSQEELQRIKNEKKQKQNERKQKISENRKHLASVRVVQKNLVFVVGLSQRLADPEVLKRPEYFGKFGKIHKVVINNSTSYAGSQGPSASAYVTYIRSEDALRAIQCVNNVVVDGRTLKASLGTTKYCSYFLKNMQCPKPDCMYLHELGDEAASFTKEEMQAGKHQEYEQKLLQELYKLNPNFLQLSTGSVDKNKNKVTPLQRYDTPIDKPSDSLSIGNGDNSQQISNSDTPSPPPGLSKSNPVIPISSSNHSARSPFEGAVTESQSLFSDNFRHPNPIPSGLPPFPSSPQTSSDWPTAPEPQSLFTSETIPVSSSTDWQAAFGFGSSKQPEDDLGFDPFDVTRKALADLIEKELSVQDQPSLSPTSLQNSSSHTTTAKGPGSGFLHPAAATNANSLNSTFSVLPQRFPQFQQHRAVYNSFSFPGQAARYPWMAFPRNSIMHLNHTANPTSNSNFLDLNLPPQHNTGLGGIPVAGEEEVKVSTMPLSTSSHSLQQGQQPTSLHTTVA
UniProt P53618: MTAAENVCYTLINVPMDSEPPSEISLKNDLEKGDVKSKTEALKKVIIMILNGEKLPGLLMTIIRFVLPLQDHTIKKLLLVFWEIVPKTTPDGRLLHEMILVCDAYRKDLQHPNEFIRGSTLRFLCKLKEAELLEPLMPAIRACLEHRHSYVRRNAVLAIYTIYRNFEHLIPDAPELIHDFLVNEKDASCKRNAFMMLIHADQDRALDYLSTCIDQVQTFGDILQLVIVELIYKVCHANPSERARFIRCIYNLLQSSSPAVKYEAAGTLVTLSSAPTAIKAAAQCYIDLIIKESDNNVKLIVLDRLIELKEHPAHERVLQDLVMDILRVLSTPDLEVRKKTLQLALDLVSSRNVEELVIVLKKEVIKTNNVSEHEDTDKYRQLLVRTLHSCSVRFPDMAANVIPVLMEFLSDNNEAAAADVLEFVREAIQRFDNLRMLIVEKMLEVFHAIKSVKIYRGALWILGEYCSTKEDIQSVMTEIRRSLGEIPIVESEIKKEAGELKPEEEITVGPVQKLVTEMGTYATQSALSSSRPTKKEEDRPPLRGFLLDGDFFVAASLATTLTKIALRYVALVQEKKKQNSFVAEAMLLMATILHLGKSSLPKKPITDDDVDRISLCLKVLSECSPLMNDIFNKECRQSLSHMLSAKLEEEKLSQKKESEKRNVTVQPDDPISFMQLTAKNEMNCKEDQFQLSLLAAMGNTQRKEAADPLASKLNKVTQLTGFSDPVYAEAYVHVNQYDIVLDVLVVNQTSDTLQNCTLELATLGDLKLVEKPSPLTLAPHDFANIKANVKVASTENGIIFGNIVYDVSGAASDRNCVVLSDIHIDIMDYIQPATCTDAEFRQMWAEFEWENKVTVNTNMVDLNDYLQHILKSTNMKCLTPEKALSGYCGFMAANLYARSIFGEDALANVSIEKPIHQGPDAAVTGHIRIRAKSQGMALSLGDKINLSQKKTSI
UniProt Q92600, whole entry, looked up: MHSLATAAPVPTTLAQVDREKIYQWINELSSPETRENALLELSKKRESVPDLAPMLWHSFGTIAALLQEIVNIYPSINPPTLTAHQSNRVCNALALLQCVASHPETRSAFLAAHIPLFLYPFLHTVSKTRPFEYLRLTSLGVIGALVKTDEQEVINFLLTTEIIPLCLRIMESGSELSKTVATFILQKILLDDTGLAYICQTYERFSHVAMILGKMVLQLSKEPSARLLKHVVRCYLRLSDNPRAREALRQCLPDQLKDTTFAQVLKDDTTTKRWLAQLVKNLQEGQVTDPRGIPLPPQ
UniProt Q14746: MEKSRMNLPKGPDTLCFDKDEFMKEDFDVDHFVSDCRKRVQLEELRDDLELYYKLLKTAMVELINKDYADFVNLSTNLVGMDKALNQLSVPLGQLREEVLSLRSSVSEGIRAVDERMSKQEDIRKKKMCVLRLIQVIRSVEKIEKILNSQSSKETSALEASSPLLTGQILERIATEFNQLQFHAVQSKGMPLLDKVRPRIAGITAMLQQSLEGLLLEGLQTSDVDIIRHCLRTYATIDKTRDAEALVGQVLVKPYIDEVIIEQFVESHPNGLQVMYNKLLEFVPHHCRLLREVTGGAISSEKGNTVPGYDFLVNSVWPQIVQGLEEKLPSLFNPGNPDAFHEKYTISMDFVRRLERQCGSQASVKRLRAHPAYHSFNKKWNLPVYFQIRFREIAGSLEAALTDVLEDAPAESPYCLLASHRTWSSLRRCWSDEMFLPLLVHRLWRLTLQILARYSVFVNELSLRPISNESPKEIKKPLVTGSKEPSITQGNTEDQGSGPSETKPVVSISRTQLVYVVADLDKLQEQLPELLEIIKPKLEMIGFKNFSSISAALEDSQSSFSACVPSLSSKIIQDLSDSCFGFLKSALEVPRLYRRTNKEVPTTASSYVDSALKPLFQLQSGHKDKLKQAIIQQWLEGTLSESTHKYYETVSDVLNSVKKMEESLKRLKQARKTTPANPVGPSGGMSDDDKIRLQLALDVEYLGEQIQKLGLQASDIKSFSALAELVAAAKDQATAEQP

The targets below were run with Cc1cc(ccc1-c1ccccc1)C(=O)N1CCCN(CC1)C(=O)CCl [compound 10] (assay: probe-labelled cysteine peptide fold change vs DMSO (competition) (log2 fold change); higher = less target engagement (more negative = stronger competition)). Conditions: 10 µM; THP-1; incubation time: 4 h.
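Further: competitive profiling in live THP-1 cells: cysteine peptides tagged with an iodoacetamide desthiobiotin (IA-DTB) probe, intensity after compound treatment relative to DMSO-treated cells.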

| Target | probe-labelled cysteine peptide fold change |
| --- | --- |
| COPB2_P35606_689_CQFGLAQECLHHAQDYGGLLLLATASGNANMVNK (UniProt P35606) | 0.201 |
| COMTD1_Q86VU5_45_EQCLLPPEDSR (UniProt Q86VU5) | -0.125 |
| CNPY2_Q9Y2B0_28_SQDLHCGACR (UniProt Q9Y2B0) | -0.272 |
| COLGALT1_Q8NBJ5_228_GCFAVPMVHSTFLIDLR (UniProt Q8NBJ5) | 0.305 |
| COPG2_Q9UBF2_280_NKHEMVIYEAASAIIHLPNCTAR (UniProt Q9UBF2) | -0.131 |
| COMTD1_Q86VU5_191_ENCSAYYER (UniProt Q86VU5) | 0.025 |
| CNOT7_Q9UIV1_148_KHEEEGIETQYFAELLMTSGVVLCEGVK (UniProt Q9UIV1) | 0.17 |
| CNBP_P62633_97+98+101_EQCCYNCGKPGHLAR (UniProt P62633) | -0.244 |
| COPG1_Q9Y678_516_CVMDDDNEVRDR (UniProt Q9Y678) | 0.112 |
| COG3_Q96JB2_349_ELLLGPSIACTVAELTSQNNR (UniProt Q96JB2) | -0.155 |
| COLEC10_Q9Y6Z7_121_AGTVCDCGR (UniProt Q9Y6Z7) | -0.373 |
| CMTR1_Q8N1G2_191_KMIIEDETEFCGEELLHSVLQCK (UniProt Q8N1G2) | 0.0946 |
| COQ8A_Q8NI60_620_MGGSFLICSK (UniProt Q8NI60) | 0.0354 |
| CORO1A_P31146_345_CEPIAMTVPR (UniProt P31146) | -0.052 |
| CNBP_P62633_97_EQCCYNCGK (UniProt P62633) | 0.0238 |
| COG3_Q96JB2_349+363_ELLLGPSIACTVAELTSQNNRDHCALVR (UniProt Q96JB2) | -0.652 |
| CNBP_P62633_171_ECTIEATA (UniProt P62633) | -0.182 |
| CNOT4_O95628_56_IRTDENGLCPACR (UniProt O95628) | 0.0155 |
| COPB1_P53618_102_LLHEMILVCDAYR (UniProt P53618) | 0.132 |
| CNOT9_Q92600_91+99_VCNALALLQCVASHPETR (UniProt Q92600) | -0.0648 |

Same assay, conditions: 50 µM; THP-1; incubation time: 4 h

| Target | probe-labelled cysteine peptide fold change |
| --- | --- |
| CNBP_P62633_101_EQCCYNCGKPGHLAR (UniProt P62633) | -0.268 |
| CNBP_P62633_97_EREQCCYNCGKPGHLAR (UniProt P62633) | -0.744 |
| COPB2_P35606_681_CQFGLAQECLHHAQDYGGLLLLATASGNANMVNK (UniProt P35606) | 0.088 |
| COL15A1_P39059_965_GAIFPIPVRPHCK (UniProt P39059) | 0.0369 |
| COG2_Q14746_358_QCGSQASVK (UniProt Q14746) | 0.00367 |
| COPS4_Q9BT78_70_QLLTDFCTHLPNLPDSTAK (UniProt Q9BT78) | 0.203 |
| CMPK2_Q5EBM0_243_AVLDLVDQCPK (UniProt Q5EBM0) | -0.127 |
| COPA_P53621_514_HAIVICNR (UniProt P53621) | 0.352 |
| COPS4_Q9BT78_378_QIQSLCFQVNNLLEK (UniProt Q9BT78) | 0.0593 |
| COMT_P21964_223_KGTVLLADNVICPGAPDFLAHVR (UniProt P21964) | -0.112 |
| CNOT1_A5YKK6_1687_YRECHLLVLK (UniProt A5YKK6) | 0.198 |
| COQ3_Q9NZJ6_358_GETEELQANACTNPAVHEK (UniProt Q9NZJ6) | -0.503 |
| CNOT4_O95628_175_AIQCVNNVVVDGR (UniProt O95628) | -0.303 |
| COG2_Q14746_579_IIQDLSDSCFGFLK (UniProt Q14746) | 0.245 |
| CNOT10_Q9H9A5_504_NSNQLGGNTESSESSETCSSK (UniProt Q9H9A5) | -0.347 |
| COMMD3_Q9UBI1_90_STLSTYLEDCK (UniProt Q9UBI1) | 0.135 |
| COPB2_P35606_689_CQFGLAQECLHHAQDYGGLLLLATASGNANMVNK (UniProt P35606) | 0.303 |
| COMTD1_Q86VU5_45_EQCLLPPEDSR (UniProt Q86VU5) | -0.294 |

| Target | probe-labelled cysteine peptide fold change |
| --- | --- |
| CNPY2_Q9Y2B0_28_SQDLHCGACR (UniProt Q9Y2B0) | -0.187 |
| COLGALT1_Q8NBJ5_228_GCFAVPMVHSTFLIDLR (UniProt Q8NBJ5) | 0.311 |
| COPG2_Q9UBF2_280_NKHEMVIYEAASAIIHLPNCTAR (UniProt Q9UBF2) | 0.256 |
| COMTD1_Q86VU5_191_ENCSAYYER (UniProt Q86VU5) | 0.206 |
| CNOT7_Q9UIV1_148_KHEEEGIETQYFAELLMTSGVVLCEGVK (UniProt Q9UIV1) | -0.325 |
| CNBP_P62633_97+98+101_EQCCYNCGKPGHLAR (UniProt P62633) | -0.799 |
| COPG1_Q9Y678_516_CVMDDDNEVRDR (UniProt Q9Y678) | 0.21 |
| COG3_Q96JB2_349_ELLLGPSIACTVAELTSQNNR (UniProt Q96JB2) | -0.545 |
| COLEC10_Q9Y6Z7_121_AGTVCDCGR (UniProt Q9Y6Z7) | -0.191 |
| CMTR1_Q8N1G2_191_KMIIEDETEFCGEELLHSVLQCK (UniProt Q8N1G2) | -0.208 |
| COQ8A_Q8NI60_620_MGGSFLICSK (UniProt Q8NI60) | -0.0318 |
| CORO1A_P31146_345_CEPIAMTVPR (UniProt P31146) | -0.141 |
| CNBP_P62633_97_EQCCYNCGK (UniProt P62633) | 0.328 |
| COG3_Q96JB2_349+363_ELLLGPSIACTVAELTSQNNRDHCALVR (UniProt Q96JB2) | 0.0075 |
| CNBP_P62633_171_ECTIEATA (UniProt P62633) | 0.15 |
| CNOT4_O95628_56_IRTDENGLCPACR (UniProt O95628) | -0.281 |
| COPB1_P53618_102_LLHEMILVCDAYR (UniProt P53618) | 0.0394 |
| CNOT9_Q92600_91+99_VCNALALLQCVASHPETR (UniProt Q92600) | 0.0754 |
